These are yes or no findings as the source states them, for the method shown. Some results given as binding are weak or reduced against the parent protein; the word gives no strength.
Target: Human CD3 on T cells / Jurkat cells (human) (UniProt P07766)
Test: flow cytometry on Jurkat cells, hybridoma antibody

Protein sequences, listed by entry. Tags and fused reporters are not part of them. Lines headed by an entry give the natural chain unless they say otherwise; changes in a name come on top.
UniProt P07766: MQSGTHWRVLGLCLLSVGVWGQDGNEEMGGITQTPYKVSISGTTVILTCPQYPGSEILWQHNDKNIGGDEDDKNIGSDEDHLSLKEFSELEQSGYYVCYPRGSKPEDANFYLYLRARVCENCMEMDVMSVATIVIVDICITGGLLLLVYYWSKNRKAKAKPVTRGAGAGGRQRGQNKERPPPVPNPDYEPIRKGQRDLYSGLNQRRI

B1: clone 065_D03 (antibody, human IgG1, kappa, V domains shown)
VH: EVQLVESGGGLVKPGGSLRLSCAASGFTFSRYNMNWVRQAPGKGLEWVSSISTSSNYIYYADSVKGRFTFSRDNAKNSLDLQMSGLRAEDTAIYYCTRGWGPFDYWGQGTLVTVSS
VL: DILLTQSPGILSVSPGERVSFSCRARQSIGTAIHWYQQRTNGSPRLLIKYASESISGIPSRFSGSGSGTDFTLTINSVESEDIADYYCQQSNSWPYTFGGGTKLEIKR
- binding: binds
